Data taken from PubChem BioAssay (NCATS).
The inconclusive results got no clear call from the source; some entries with a clear call stand among them for comparison. For part of these data: Where the call is inconclusive, the potency comes from a doubtful curve fit. The source made the active and inactive calls. Calls come from the whole dose curve; as a rule, active = well fitted curve in the direction sought with a large enough effect; inconclusive = small, poorly fitted or top-dose-only effect, or another doubt; inactive = no such curve, though single readings can be large; an effect the other way counts as inactive or inconclusive.

The chains behind the UniProt entries cited, without tags or fusion partners. Where a name states a change or a piece, a line headed by the entry shows the natural chain unless it says otherwise.
UniProt Q9UNA4: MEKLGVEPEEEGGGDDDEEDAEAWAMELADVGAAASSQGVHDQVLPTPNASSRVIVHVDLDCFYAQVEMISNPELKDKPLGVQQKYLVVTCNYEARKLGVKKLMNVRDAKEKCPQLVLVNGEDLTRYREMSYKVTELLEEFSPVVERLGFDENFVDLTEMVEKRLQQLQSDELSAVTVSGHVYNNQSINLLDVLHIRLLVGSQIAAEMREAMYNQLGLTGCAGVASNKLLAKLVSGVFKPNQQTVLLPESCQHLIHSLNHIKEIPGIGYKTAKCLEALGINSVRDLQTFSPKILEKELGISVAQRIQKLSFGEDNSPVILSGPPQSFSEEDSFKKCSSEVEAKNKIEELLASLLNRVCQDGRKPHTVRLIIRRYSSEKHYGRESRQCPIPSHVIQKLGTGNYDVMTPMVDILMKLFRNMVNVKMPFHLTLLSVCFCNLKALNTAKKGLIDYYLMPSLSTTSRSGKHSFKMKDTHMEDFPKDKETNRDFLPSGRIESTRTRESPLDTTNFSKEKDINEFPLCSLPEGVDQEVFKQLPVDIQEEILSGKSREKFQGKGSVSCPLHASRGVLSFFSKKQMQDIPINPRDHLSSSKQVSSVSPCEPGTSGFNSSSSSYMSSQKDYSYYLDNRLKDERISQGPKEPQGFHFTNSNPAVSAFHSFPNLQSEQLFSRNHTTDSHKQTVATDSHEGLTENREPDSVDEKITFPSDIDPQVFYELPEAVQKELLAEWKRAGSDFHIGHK
UniProt Q9Y253: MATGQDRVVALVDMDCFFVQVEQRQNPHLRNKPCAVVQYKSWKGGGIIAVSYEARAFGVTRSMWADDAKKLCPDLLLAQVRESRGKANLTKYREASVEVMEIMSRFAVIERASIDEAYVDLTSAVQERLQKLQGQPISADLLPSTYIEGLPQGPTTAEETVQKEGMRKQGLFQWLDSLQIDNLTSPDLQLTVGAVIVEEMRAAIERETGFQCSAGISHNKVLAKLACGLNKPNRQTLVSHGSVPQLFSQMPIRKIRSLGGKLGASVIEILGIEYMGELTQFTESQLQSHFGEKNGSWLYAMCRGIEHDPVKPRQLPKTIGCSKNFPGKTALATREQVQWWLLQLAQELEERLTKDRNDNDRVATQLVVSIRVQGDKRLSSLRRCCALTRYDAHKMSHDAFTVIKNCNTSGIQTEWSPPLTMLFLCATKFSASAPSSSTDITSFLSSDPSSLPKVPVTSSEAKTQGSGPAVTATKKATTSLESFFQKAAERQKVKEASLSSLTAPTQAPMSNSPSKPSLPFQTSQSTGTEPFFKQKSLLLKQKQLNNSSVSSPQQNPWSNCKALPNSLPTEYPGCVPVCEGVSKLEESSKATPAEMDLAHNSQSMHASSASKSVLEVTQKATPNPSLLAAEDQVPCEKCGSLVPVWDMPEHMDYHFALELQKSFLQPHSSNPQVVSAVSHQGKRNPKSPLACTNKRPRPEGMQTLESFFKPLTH
UniProt Q8WZA2: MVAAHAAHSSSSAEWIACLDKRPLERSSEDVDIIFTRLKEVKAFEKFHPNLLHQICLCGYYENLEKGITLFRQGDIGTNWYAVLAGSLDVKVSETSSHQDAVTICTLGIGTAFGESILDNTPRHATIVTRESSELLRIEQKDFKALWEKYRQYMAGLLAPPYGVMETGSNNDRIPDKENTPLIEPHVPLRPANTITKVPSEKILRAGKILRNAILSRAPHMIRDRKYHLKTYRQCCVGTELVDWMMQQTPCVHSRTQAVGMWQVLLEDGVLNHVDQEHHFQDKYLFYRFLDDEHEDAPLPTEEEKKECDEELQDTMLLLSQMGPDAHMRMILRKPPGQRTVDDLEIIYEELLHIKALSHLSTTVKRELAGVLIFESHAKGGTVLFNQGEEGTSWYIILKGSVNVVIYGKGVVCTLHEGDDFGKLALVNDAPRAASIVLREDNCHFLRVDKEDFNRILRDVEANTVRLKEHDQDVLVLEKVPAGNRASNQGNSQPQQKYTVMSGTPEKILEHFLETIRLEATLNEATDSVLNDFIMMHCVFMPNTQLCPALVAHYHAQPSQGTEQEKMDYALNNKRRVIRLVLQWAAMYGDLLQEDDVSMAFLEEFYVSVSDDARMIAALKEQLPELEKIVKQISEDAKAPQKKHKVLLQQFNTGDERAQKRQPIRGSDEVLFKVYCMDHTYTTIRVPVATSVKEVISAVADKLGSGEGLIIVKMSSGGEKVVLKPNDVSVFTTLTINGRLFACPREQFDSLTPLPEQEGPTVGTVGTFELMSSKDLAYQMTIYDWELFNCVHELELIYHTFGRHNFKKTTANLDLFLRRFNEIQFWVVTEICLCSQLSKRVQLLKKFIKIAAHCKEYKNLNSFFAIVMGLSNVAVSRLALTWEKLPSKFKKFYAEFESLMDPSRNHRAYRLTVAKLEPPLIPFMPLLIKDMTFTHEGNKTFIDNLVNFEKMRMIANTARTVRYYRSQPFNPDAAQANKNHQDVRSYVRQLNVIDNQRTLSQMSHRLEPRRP
UniProt Q9UBT6: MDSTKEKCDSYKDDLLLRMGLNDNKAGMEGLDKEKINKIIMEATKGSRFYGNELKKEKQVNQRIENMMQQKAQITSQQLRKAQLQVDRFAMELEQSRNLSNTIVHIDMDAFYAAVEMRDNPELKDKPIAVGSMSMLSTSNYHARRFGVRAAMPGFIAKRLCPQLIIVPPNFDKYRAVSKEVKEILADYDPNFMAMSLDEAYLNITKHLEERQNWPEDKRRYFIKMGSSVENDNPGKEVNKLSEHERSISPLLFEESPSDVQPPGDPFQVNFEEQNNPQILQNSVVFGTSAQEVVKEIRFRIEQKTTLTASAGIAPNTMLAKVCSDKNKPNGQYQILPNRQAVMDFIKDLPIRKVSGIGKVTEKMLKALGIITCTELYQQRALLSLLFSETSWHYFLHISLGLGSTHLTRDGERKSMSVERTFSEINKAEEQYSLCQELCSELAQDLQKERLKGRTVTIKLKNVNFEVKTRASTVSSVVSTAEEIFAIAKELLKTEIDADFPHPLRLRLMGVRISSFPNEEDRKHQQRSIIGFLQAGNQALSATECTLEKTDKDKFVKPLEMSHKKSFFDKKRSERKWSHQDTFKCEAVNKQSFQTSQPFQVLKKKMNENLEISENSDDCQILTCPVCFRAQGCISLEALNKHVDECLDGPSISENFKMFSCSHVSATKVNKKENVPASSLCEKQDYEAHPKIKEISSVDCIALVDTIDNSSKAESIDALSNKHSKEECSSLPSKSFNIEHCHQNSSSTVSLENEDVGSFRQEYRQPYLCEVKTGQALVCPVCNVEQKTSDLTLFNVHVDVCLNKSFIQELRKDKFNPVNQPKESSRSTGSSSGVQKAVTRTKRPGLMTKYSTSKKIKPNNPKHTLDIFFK
UniProt P07378: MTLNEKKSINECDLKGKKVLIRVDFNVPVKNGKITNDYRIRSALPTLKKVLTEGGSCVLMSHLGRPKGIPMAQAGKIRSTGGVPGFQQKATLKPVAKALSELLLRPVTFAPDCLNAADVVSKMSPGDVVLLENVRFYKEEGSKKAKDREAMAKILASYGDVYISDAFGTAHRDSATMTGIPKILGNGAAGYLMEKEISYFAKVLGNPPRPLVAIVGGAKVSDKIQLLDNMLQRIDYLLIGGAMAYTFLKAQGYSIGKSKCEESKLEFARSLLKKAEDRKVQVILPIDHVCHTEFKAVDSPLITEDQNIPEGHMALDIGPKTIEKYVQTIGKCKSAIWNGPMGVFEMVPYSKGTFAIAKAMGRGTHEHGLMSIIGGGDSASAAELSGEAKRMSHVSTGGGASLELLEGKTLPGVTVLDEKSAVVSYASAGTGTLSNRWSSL

What was measured:
[1] = molecular target: DNA polymerase iota (Homo sapiens) (UniProt Q9UNA4); experiment: qHTS for Inhibitors of Polymerase Iota: Confirmatory Assay for Cherry-picked Compounds (AID 720496); details: Pol iota primer extension, TAMRA/BHQ fluorescence
Summary of the method: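 Kinetic fluorescence, 0 → 10 min, ex 525/em 598 nm. Pol iota 10 nM, 15 min RT preincubation with compound, then 50 nM (final) TAMRA/BHQ-2 primer-template substrate.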

[2] = molecular target: DNA polymerase eta (Homo sapiens) (UniProt Q9Y253); experiment: qHTS for Inhibitors of Polymerase Eta: Confirmatory Assay for Cherry-picked Compounds (AID 720502); details: Pol eta primer extension, TAMRA/BHQ fluorescence, 10 min
Summary of the method: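 Strand-displacement fluorescence (525 nm excitation, 598 nm emission) was read kinetically at 0 and 10 min after adding 50 nM final TAMRA-reporter/BHQ-2-template substrate. Beforehand, 10 nM Pol eta had been exposed to compound for 15 min at room temperature.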

[3] = molecular target: Rap guanine nucleotide exchange factor 3 (Homo sapiens) (UniProt O95398); experiment: Confirmatory qHTS for antagonist of cAMP-regulated guanine nucleotide exchange factor 3 (EPAC1) (AID 1645880); details: EPAC1 Rap1B-BODIPY-GDP exchange, fluorescence; activity, negative = inhibition: at 115 µM (top of the series); note: nearly all actives have a fitted effect of over 55% in size
Summary of the method: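 Released BODIPY-GDP fluoresces less than Rap1-bound BODIPY-GDP; the signal is followed at 480/540 nm at 5-min intervals over 30 min, after 5 min at room temperature. Reactions contain 100 nM EPAC1, 250 nM RAP1B-BODIPY-GDP and 50 uM GDP; results are normalized to ATA and DMSO.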

[4] = molecular target: Rap guanine nucleotide exchange factor 4 (Homo sapiens) (UniProt Q8WZA2); experiment: Confirmatory qHTS for antagonist of cAMP-regulated guanine nucleotide exchange factor 4 (EPAC2) (AID 1645885); details: EPAC2 Rap1B-BODIPY-GDP exchange fluorescence, biochemical; activity change, negative = inhibition: at 12.7 µM (top of the series) unless noted; series mostly up to 114 µM; note: nearly all actives have a fitted effect of over 25% in size
[5] = molecular target: Rap guanine nucleotide exchange factor 3 (Homo sapiens) (UniProt O95398); experiment: Counterscreen qHTS for agonist of cAMP-regulated guanine nucleotide exchange factor 3 (EPAC1) (AID 1645889); details: EPAC1 Rap1B-BODIPY-GDP exchange, fluorescence; activation: at 154 µM (top of the series) unless noted; note: nearly all actives have a fitted effect of over 40% in size; for activation: % of control where 0% means no effect
Summary of the method: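 Rap1B–BODIPY-GDP (250 nM) with 50 uM GDP; compounds pin-transferred to 9.74 nM–152 uM final (activator) or from 7.32 nM upwards (inhibitor). Fluorescence Ex/Em 480/540 nm read at 5 and 30 min, then after adding cAMP or buffer, at room temperature.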

[6] = molecular target: DNA polymerase kappa (Homo sapiens) (UniProt Q9UBT6); experiment: qHTS for Inhibitors of Polymerase Kappa: Confirmatory Assay for Cherry-picked Compounds (AID 720501); details: purified Pol-kappa, fluorescent strand-displacement substrate
Summary of the method: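 10 nM human Pol-kappa was preincubated with compound 15 min at room temperature, then 50 nM (final) primer/template substrate with TAMRA-labeled reporter strand and BHQ-2-labeled template added. Fluorescence (Ex 525, Em 598 nm) read at 0 and 10 min.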

[7] = molecular target: Phosphoglycerate kinase, glycosomal (Trypanosoma brucei brucei) (UniProt P07378); experiment: qHTS for inhibitors of Phosphogylcerate Kinase: Hit Validation Screen (AID 686980); details: TbPGK coupled GAPDH assay, Kinase-Glo luminescence; series mostly up to 57.5 µM; note: nearly all actives have a fitted effect of over 65% in size
Summary of the method: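 Recombinant glycosomal PGK reaction used 1,3-bisphosphoglycerate generated in-well by GAPDH (100nM final) in 100mM TEA pH 7.6, 5mM MgCl2, 0.01% Tween-20. After 60 minutes at room temperature, ATP was read by Kinase-Glo Plus luminescence end-point.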
Potency is the fitted concentration of half-maximal effect.

SMILES | Potency [1] | Potency [2] | Potency [3] | Potency [4] | activation [5] | Potency [5] | Potency [6] | Potency [7]
O=C(NC1CC1)C1CCN(S(=O)(=O)c2cc([N+](=O)[O-])ccc2Cl)CC1 | active: 29.9 µM | inconclusive: 60.1 µM [inhibitor, partial curve, poor fit] | inconclusive: 37.9 µM [inhibitor, partial curve] | inconclusive: 95.3 µM [inhibitor, single point] | inconclusive: 27.1% [activator] |  |  | 
FC(F)(F)C1=Nc2cccc3cccc(c23)N1 | active: 16.8 µM |  | inconclusive: 26.9 µM [inhibitor, partial curve] | inconclusive: 84.9 µM [inhibitor, partial curve, poor fit] |  | inconclusive: 0.501 µM [activator, full curve, poor fit] |  | 
Cc1ccc(S(=O)(=O)N2[C@@H](c3ccc(Br)cc3)C(C(=O)O)=CC[C@H]2c2ccc(Cl)c(Cl)c2)cc1 |  |  | active: 67.5 µM | active: 33.8 µM |  | inconclusive: 15.8 µM [activator, partial curve, poor fit] | inconclusive: 84.4 µM [inhibitor, single point] | 
O=C(O)c1ccccc1NS(=O)(=O)c1ccc(N/N=C/c2cccc(O)c2O)c([N+](=O)[O-])c1 |  |  | active: 9.53 µM | inconclusive: 23.9 µM [inhibitor, full curve] |  | inactive |  | active: 11.6 µM
CN(CC(=O)Nc1ccc(F)cc1)C(=O)c1cc(-c2ccco2)nc2ccccc12 |  | inconclusive: 75.7 µM [inhibitor, single point] | inconclusive: 19 µM [inhibitor, full curve, poor fit] | inconclusive: 75.7 µM [inhibitor, partial curve, poor fit] |  | inconclusive: 28.2 µM [activator, partial curve, poor fit] |  | 
